{"source": "patent US6503906B1", "about": "(priority 2002, dated 2003)", "origin": "cited, not measured here", "tested_on": "gram positive and negative bacteria", "settings": "human, in vivo; cited from earlier work", "data": [{"compound": "O=C(O)c1cn(C2CC2)c2cc(N3CCNCC3)c(F)cc2c1=O", "note": "[ciprofloxacin]", "values": [{"measurement": "patients remaining culture-positive", "value": "more than 60%"}]}]}
